The assay deals with L1210 leukemia ip in BDF1 mice, survival T/C. The experiment in a line: NCI In Vivo Anticancer Drug Screen. Data for tumor model L1210 Leukemia (intraperitoneal) in B6D2F1 (BDF1) mice. The note with it: T/C endpoint: mean survival time, higher T/C = longer survival.
[1] abbreviates: dose: 18.7 mg/kg/injection, schedule: Q01DX001 (ip), vehicle: carboxymethylcellulose (CMC).
[2] abbreviates: dose: 200.0 mg/kg/injection, schedule: Q01DX009 (ip), vehicle: Klucel (hydroxypropylcellulose) (HPC).
[3] abbreviates: dose: 400.0 mg/kg/injection, schedule: Q01DX009 (ip), vehicle: Klucel (hydroxypropylcellulose) (HPC).
Where [4] appears, read: dose: 400.0 mg/kg/injection, schedule: Q01DX001 (ip), vehicle: saline.
Where [5] appears, read: dose: 200.0 mg/kg/injection, schedule: Q01DX009 (ip), vehicle: saline with Tween-80.

The list shows only some results of the screen, not a fair sample: it is rich in T/C values a quarter to a half above the control, in often repeated tests (any T/C) and in doses without a T/C. Further doses and runs are listed elsewhere. T/C gives the treated animals as a percentage of the vehicle group. Some doses have a count of surviving animals in place of a T/C: the source files T/C as zero there, which appears to mark a toxic dose or a test without result, not a measured value. Some doses without a T/C left all or most animals alive at the check, yet need not have been tolerated: survival well below the control is almost never listed, so the zero probably covers shortened survival too. Survivors were counted at the toxicity check, usually on the fifth day, unless a day is given; later deaths do not show. Schedule codes are those of the source, read here as Q, the interval in days (D) or hours (H), X, the number of doses. Some entries were tested several times; the results are listed from low to high. Some schedules carry Z or #; the key to these is not given. For survival time, this PubChem deposit counts one and a half times the control or more as active, and values a quarter to a half above the control carry no call in these data; other NCI protocols may use other cut-offs. Some T/C values carry the count of animals alive at the toxicity check (mostly the fifth day); where none is given, no animal had died by that day. Additions like (4×) say how often a value occurs here.

With `COc1ccc(CC(N)C(=O)O)cc1N(CCCl)CCCl` (stereo not drawn), the T/C by setting is: (dose: 0.08 mg/kg/injection, schedule: Q01DX009 (ip), vehicle: carboxymethylcellulose (CMC)) 135 % of control; (dose: 0.15 mg/kg/injection, schedule: Q01DX009 (ip), vehicle: carboxymethylcellulose (CMC), evaluated on day 30) 130 % of control; (dose: 0.15 mg/kg/injection, schedule: Q01DX009 (ip), vehicle: carboxymethylcellulose (CMC), run until all animals had died) 127 and 131 % of control; (dose: 0.3 mg/kg/injection, schedule: Q01DX009 (ip), vehicle: carboxymethylcellulose (CMC)) 127 % of control; (dose: 0.6 mg/kg/injection, schedule: Q01DX009 (ip), vehicle: carboxymethylcellulose (CMC), evaluated on day 30) 144 % of control; (dose: 0.6 mg/kg/injection, schedule: Q01DX009 (ip), vehicle: carboxymethylcellulose (CMC), run until all animals had died) 138 % of control. Moreover, the T/C is, setting by setting: (dose: 0.75 mg/kg/injection, schedule: Q01DX009 (ip), vehicle: carboxymethylcellulose (CMC)) 143 % of control; (dose: 0.9 mg/kg/injection, schedule: Q01DX009 (ip), vehicle: carboxymethylcellulose (CMC)) 129 % of control; (dose: 1.2 mg/kg/injection, schedule: Q01DX009 (ip), vehicle: carboxymethylcellulose (CMC)) 143 % of control [5 of 6 alive]; (dose: 1.3 mg/kg/injection, schedule: Q01DX009 (ip), vehicle: carboxymethylcellulose (CMC)) 137 and 139 % of control; (dose: 2.5 mg/kg/injection, schedule: Q01DX009 (ip), vehicle: carboxymethylcellulose (CMC)) 134 % of control; (dose: 3.0 mg/kg/injection, schedule: Q01DX009 (ip), vehicle: carboxymethylcellulose (CMC)) 148 % of control. Besides, the T/C is 135 % of control (dose: 5.0 mg/kg/injection, schedule: Q01DX001 (ip), vehicle: carboxymethylcellulose (CMC)); 141 % of control (dose: 5.0 mg/kg/injection, schedule: Q01DX009 (ip), vehicle: carboxymethylcellulose (CMC)); 131 and 144 % of control [5 of 6 alive] (dose: 8.3 mg/kg/injection, schedule: Q01DX001 (ip), vehicle: carboxymethylcellulose (CMC)); 140 % of control (dose: 12.5 mg/kg/injection, schedule: Q01DX001 (ip), vehicle: carboxymethylcellulose (CMC)); 127 % of control under setting [1]. The survivor count is on record as 5 of 6 (dose: 5.3 mg/kg/injection, schedule: Q01DX009 (ip), vehicle: carboxymethylcellulose (CMC)); 6 of 6 (dose: 8.0 mg/kg/injection, schedule: Q01DX009 (ip), vehicle: carboxymethylcellulose (CMC)); 6 of 6 (dose: 11.0 mg/kg/injection, schedule: Q01DX009 (ip), vehicle: carboxymethylcellulose (CMC)); 5 of 6 (dose: 11.1 mg/kg/injection, schedule: Q01DX009 (ip), vehicle: carboxymethylcellulose (CMC)); 4 of 6 (dose: 16.0 mg/kg/injection, schedule: Q01DX009 (ip), vehicle: carboxymethylcellulose (CMC)); 1 of 6 (dose: 16.6 mg/kg/injection, schedule: Q01DX009 (ip), vehicle: carboxymethylcellulose (CMC)). The survivor count was 1 of 6 (dose: 18.0 mg/kg/injection, schedule: Q01DX009 (ip), vehicle: carboxymethylcellulose (CMC)); 5 of 6 under setting [1]; 3 of 6 and 6 of 6 (dose: 25.0 mg/kg/injection, schedule: Q01DX001 (ip), vehicle: carboxymethylcellulose (CMC)); 0 of 6 (dose: 25.0 mg/kg/injection, schedule: Q01DX009 (ip), vehicle: carboxymethylcellulose (CMC)); 4 of 6 (dose: 37.5 mg/kg/injection, schedule: Q01DX001 (ip), vehicle: carboxymethylcellulose (CMC)); 0 of 6 (dose: 37.5 mg/kg/injection, schedule: Q01DX009 (ip), vehicle: carboxymethylcellulose (CMC)). The survivor count (dose: 50.0 mg/kg/injection, schedule: Q01DX001 (ip), vehicle: carboxymethylcellulose (CMC)) was 0 of 6 and 1 of 6.
`Cc1cccnc1NC(=S)Nc1ccccc1Cl`: the survivor count (dose: 400.0 mg/kg/injection, schedule: Q04DX002 (ip), vehicle: gum acacia) was 3 of 3.
Turning to `NC(=S)N/N=C1\COC(C(F)(F)F)(C(F)(F)F)C1`, the survivor count was 3 of 6 under setting [2]; 0 of 6 under setting [3]; 5 of 6 (dose: 400.0 mg/kg/injection, schedule: Q04DX003 (ip), vehicle: Klucel (hydroxypropylcellulose) (HPC)).
Consider `CCOC(=O)CCC(NC(=O)c1ccc(N(C)C(=O)OCc2ccccc2)cc1)C(=O)OCC` (stereo not drawn), for which the survivor count (dose: 100.0 mg/kg/injection, schedule: Q01DX001 (ip), vehicle: carboxymethylcellulose (CMC)) is listed as 6 of 6.
On to `Cc1ccc(N=NN(C)C)cc1`, for which the T/C (dose: 26.6 mg/kg/injection, schedule: Q01DX Z (ip), vehicle: methylcellulose (MC)) is 135 % of control; the T/C (dose: 40.0 mg/kg/injection, schedule: Q01DX Z (ip), vehicle: methylcellulose (MC)) was 144 % of control; the T/C (dose: 60.0 mg/kg/injection, schedule: Q01DX Z (ip), vehicle: methylcellulose (MC)) is 139 and 142 % of control; the T/C (dose: 90.0 mg/kg/injection, schedule: Q01DX Z (ip), vehicle: carboxymethylcellulose (CMC)) was 136 % of control; the T/C (dose: 90.0 mg/kg/injection, schedule: Q01DX Z (ip), vehicle: methylcellulose (MC)) was 127 % of control. Also, the survivor count (dose: 125.0 mg/kg/injection, schedule: Q01DX001 (ip), vehicle: saline with Tween-80) is reported as 4 of 10; the survivor count (dose: 250.0 mg/kg/injection, schedule: Q01DX001 (ip), vehicle: saline with Tween-80) is given as 0 of 10; the survivor count (dose: 360.0 mg/kg/injection, schedule: Q01DX Z (ip), vehicle: carboxymethylcellulose (CMC)) was 0 of 6.
On to `COc1ccc(C(=O)C(C)CN2CCCCC2)cc1` (stereo not drawn), for which the survivor count under setting [4] was 0 of 4.
On the same count and under the same terms, the result for `O=C(C[n+]1cccc(C(=O)Nc2ccccc2)c1)Nc1ccc(Cl)cc1` reads 3 of 6.
Take `CC/C(C)=N\NC(=O)c1cccnc1`: the survivor count (dose: 400.0 mg/kg/injection, schedule: Q01DX009 (ip), vehicle: saline) was 0 of 6.
On to `Cc1cc[n+](Cc2ccccc2Cl)c(C)c1`, for which the T/C (dose: 12.5 mg/kg/injection, schedule: Q01DX009 (ip), vehicle: saline) was 141 % of control. The survivor count (dose: 25.0 mg/kg/injection, schedule: Q04DX003 (ip), vehicle: saline) is reported as 5 of 6; the survivor count (dose: 50.0 mg/kg/injection, schedule: Q01DX001 (ip), vehicle: saline) is 0 of 6; the survivor count (dose: 100.0 mg/kg/injection, schedule: Q01DX001 (ip), vehicle: saline) is given as 0 of 6; the survivor count (dose: 200.0 mg/kg/injection, schedule: Q01DX001 (ip), vehicle: saline) is listed as 0 of 6.
Regarding `[O-]c1c[n+](-c2ccc(Cl)cc2Cl)no1`, the survivor count under setting [2] is given as 4 of 6 and the survivor count under setting [3] is reported as 0 of 6.
As for `CC(=O)OI(OC(C)=O)c1ccccc1`, under setting [3], the survivor count is on record as 1 of 6.
For `O=C(Nc1ccc(F)cc1)Nc1ccc(Cl)cc1[N+](=O)[O-]`, the T/C by setting is: (dose: 100.0 mg/kg/injection, schedule: Q01DX009 (ip), vehicle: saline with Tween-80) 89 (2×), 94, 95 % of control; under setting [5], 92, 95, 97 % of control. The survivor count under setting [5] is on record as 6 of 6; the survivor count (dose: 400.0 mg/kg/injection, schedule: Q01DX009 (ip), vehicle: saline with Tween-80) was 3 of 3 and 6 of 6.

(Values after PubChem BioAssay AID248 (DTP/NCI, 2004).)
